Results reported in patent US20020035243A1 (priority 1998, published 2002).

How the values were obtained:
[1] = general procedure: peptide synthesis; H-Leu-chlorotrityl resin; TBTU/collidine; conditions: whole synthesis, scale 15 mmol
[2] = general procedure: peptide synthesis; aminomethyl resin with benzhydrylamine linker; TBTU/collidine; conditions: whole synthesis, scale 9.0 mmol
[3] = general procedure: peptide synthesis; H-Asp-chlorotrityl resin; H-Leu-chlorotrityl resin; aminomethyl resin with Fmoc-4-methoxy-4'-(carboxypropoxy)benzhydryla; TBTU/collidine; conditions: for conjugation yield: conjugation step
[4] = general procedure: peptide synthesis; H-Asp-chlorotrityl resin; TBTU/collidine; conditions: whole synthesis, scale 9.8 mmol

With “Fmoc-Glu(t-but)-Asp(t-but)-Tyr(t-but)-His(Boc)-Ser(t-but)-Leu-Tyr(t-but)-Asn(Trt)-Ser(t-but)-His(Boc)-Leu-OH” the isolated mass [1] was 5.3 g and the isolated yield [1] was 13%.

In the case of “Ac-E(OtBu)E(OtBu)E(OtBu)D(OtBu)K(Boc)-NH2”, the isolated mass [2] is reported as 3.97 g and the isolated yield [2] is reported as 64.9%.

For “Ac-Glu-Glu-Glu-Asp-Lys(ε-D,L-6,8-dithiooctanoylamide)-NH2 (EEEDK; N-acetyl; dithiooctanoyl lysine; C-terminal amide; printed: Glu-Glu-Glu-Asp-Lys)”, the conjugation yield [3] was 37.7%.

For “Ac-Glu-Glu-Glu-Asp-Lys(ε-D,L-6,8-dithiooctanoylamide)-NH—CH2—CH2—NH—C═O—(CH2)6—CH3 (EEEDK; N-acetyl; dithiooctanoyl lysine; ethylenediamine-octanoylamide; printed: Glu-Glu-Glu-Asp-Lys)”, the conjugation yield [3] was 57.6%.

With “Ac-Leu-Gly-Asp[NH(CH2)5—NH—CO-biotin]-Lys(ε-D,L-6,8-dithio-octanamide)-NH—CH2CH2—NH-octanoylamide” the conjugation yield [3] was 50%.

Work on “(Ac-Glu-Glu-Glu-Asp-Lys(ε-6,8-dimercaptooctanamide)-NH—CH2—CH2—NH—C═O—(CH2)6—CH3)” yielded a step yield ([3]; late stage modification step) of 49%.

“H-Glu-Asp-Tyr-His-Ser-Leu-Tyr-Asn-Ser-His-Leu-Lys(ε-D,L-6,8-dithiooctanamide)-NH—CH2CH2—NH-octanylamide (EDYHSLYNSHLK; dithiooctanoyl lysine; ethylenediamine-octanoylamide; printed: Glu-Asp-Tyr-His-Ser-Leu-Tyr-Asn-Ser-His-Leu-Lys)” showed a conjugation yield [3] of 20%.

With “H-Lys(ε-Asp-Glu-Glu-Glu-Ac)-NH—CH2CH2—NH—C═O—(CH2)14—CH3” the step yield ([3]; coupling step) was 75%.

Substance “Ac-Glu(OtBu)-Glu(OtBu)-Glu(OtBu)-Asp(OtBu)-OH” has an isolated mass [4] of 6.02 g and an isolated yield [4] of 70%.

In the case of “D,L-6,8-Dithiooctanoylamide-Lys(ε-Asp-Glu-Glu-Glu-Ac)-NH—CH2CH2—NH—C═O—(CH2)14—CH3”, the conjugation yield [3] is reported as 50%.

* marks the point of attachment. Boc = CC(C)(C)OC(=O)*; OtBu = CC(C)(C)O*
